Data taken from PubChem BioAssay AID328 (DTP/NCI, 2004).
The list does not hold the whole screen: it gathers tests that were run many times, whatever their T/C, doses with no T/C, and many T/C values between a quarter and a half above the control. Further doses and runs are listed elsewhere. T/C is the treated group as % of the vehicle group. Some doses have a count of surviving animals in place of a T/C: the source holds a T/C of zero for them, seemingly a mark for toxic or unscored doses. Some survivor counts are full or nearly so, which does not show that the dose was tolerated: survival well below the control is almost never listed, so the zero probably covers shortened survival too. Survivors were counted at the toxicity check, usually on the fifth day, unless a day is given; later deaths do not show. Schedules are NCI's codes, read here as Q, the interval in days (D) or hours (H), X, the number of doses. Some molecules as drawn cover several salts, stereoisomers or complexes of the source; a dose is that of the sample tested. Where survival is the endpoint, the PubChem record calls one and a half times the control and up active, and a quarter to a half above the control has no call in these data; cut-offs in other NCI protocols can differ. Some T/C values are followed by the survivors on the day toxicity was checked, most often the fifth; without a count, all were alive then. Some entries were tested several times; their values stand side by side, smallest first.

Test system: BDF1 mice, P388 leukemia ip, median survival T/C
Test: NCI In Vivo Anticancer Drug Screen. Data for tumor model P388 Leukemia (intraperitoneal) in B6D2F1 (BDF1) mice
Details: T/C endpoint: median survival time, higher T/C = longer survival
Method in brief: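 Steps: implant the tumour, treat one group with compound and another with vehicle, record survival, then divide treated by control.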

[1] = dose: 200.0 mg/kg/injection, schedule: Q04DX003 (ip), vehicle: saline with Tween-80
[2] = dose: 400.0 mg/kg/injection, schedule: Q04DX003 (ip), vehicle: saline with Tween-80
[3] = dose: 400.0 mg/kg/injection, schedule: Q01DX009 (ip), vehicle: water

O=C(CCN1CCCCC1)c1ccccc1
survivor count (dose: 50.0 mg/kg/injection, schedule: Q01DX009 (ip), vehicle: saline): 3 of 6
survivor count (dose: 50.0 mg/kg/injection, schedule: Q04DX003 (ip), vehicle: saline): 3 of 6
survivor count (dose: 100.0 mg/kg/injection, schedule: Q04DX003 (ip), vehicle: saline): 0 of 6

CCCCCCCCCCCCCCCC[N+](C)(C)C(C)c1ccccc1 (centres undefined)
survivor count (dose: 6.25 mg/kg/injection, schedule: Q04DX003 (ip), vehicle: saline with Tween-80): 4 of 6
survivor count (dose: 12.5 mg/kg/injection, schedule: Q04DX003 (ip), vehicle: saline with Tween-80): 3 of 6
survivor count (dose: 25.0 mg/kg/injection, schedule: Q04DX003 (ip), vehicle: saline with Tween-80): 1 of 6
survivor count (dose: 100.0 mg/kg/injection, schedule: Q04DX003 (ip), vehicle: saline with Tween-80): 0 of 6
survivor count [1]: 0 of 6
survivor count [2]: 0 of 6

CCCCCC(CN(C)C)C(=O)/C=C/c1ccc(Cl)c(Cl)c1 (centres undefined)
T/C (dose: 6.25 mg/kg/injection, schedule: Q01DX009 (ip), vehicle: saline): 142 % of control
T/C (dose: 12.5 mg/kg/injection, schedule: Q01DX009 (ip), vehicle: saline): 126 % of control
T/C (dose: 25.0 mg/kg/injection, schedule: Q01DX009 (ip), vehicle: saline): 136 % of control [5 of 6 alive]
survivor count (dose: 35.0 mg/kg/injection, schedule: Q01DX009 (ip), vehicle: saline): 0 of 6
survivor count (dose: 55.0 mg/kg/injection, schedule: Q01DX009 (ip), vehicle: saline): 0 of 6
survivor count (dose: 80.0 mg/kg/injection, schedule: Q01DX009 (ip), vehicle: saline): 0 of 6
survivor count (dose: 100.0 mg/kg/injection, schedule: Q01DX001 (ip), vehicle: saline): 2 of 6
survivor count (dose: 200.0 mg/kg/injection, schedule: Q01DX001 (ip), vehicle: saline): 0 of 6

COC(=O)c1nc2c(n(C)/c1=N/C(=O)Nc1ccccc1)CCCC2
T/C (dose: 50.0 mg/kg/injection, schedule: Q01DX009 (ip), vehicle: saline with Tween-80): 135 % of control
T/C (dose: 100.0 mg/kg/injection, schedule: Q01DX009 (ip), vehicle: saline with Tween-80): 134 % of control [5 of 6 alive]
survivor count (dose: 200.0 mg/kg/injection, schedule: Q01DX009 (ip), vehicle: saline with Tween-80): 4 of 6

CC1(C)N=C(N)N=C(N)N1c1cccc(OCCOc2cccc(NC(=O)CBr)c2)c1
T/C (dose: 20.0 mg/kg/injection, schedule: Q01DX009 (ip), vehicle: saline): 100 [5 of 6 alive], 110, 120 [5 of 6 alive], 135 % of control
survivor count (dose: 20.0 mg/kg/injection, schedule: Q04DX003 (ip), vehicle: saline): 3 of 6
T/C (dose: 30.0 mg/kg/injection, schedule: Q01DX009 (ip), vehicle: saline): 125 [5 of 6 alive] and 135 % of control [5 of 6 alive]
survivor count (dose: 40.0 mg/kg/injection, schedule: Q01DX009 (ip), vehicle: saline): 1 of 6
survivor count (dose: 40.0 mg/kg/injection, schedule: Q04DX003 (ip), vehicle: saline): 3 of 6
survivor count (dose: 70.0 mg/kg/injection, schedule: Q01DX009 (ip), vehicle: saline): 1 of 6
survivor count (dose: 80.0 mg/kg/injection, schedule: Q04DX003 (ip), vehicle: saline): 0 of 6
survivor count (dose: 105.0 mg/kg/injection, schedule: Q01DX009 (ip), vehicle: saline): 0 of 6

Clc1ccc(CN2COc3c(ccc4cccnc34)C2)cc1Cl
T/C [1]: 129 % of control
T/C [2]: 136 % of control

CC1(C)OC2C=CC3C(OC(=O)C3(C)Cl)C2O1 (centres undefined)
T/C (dose: 200.0 mg/kg/injection, schedule: Q04DX002 (ip), vehicle: saline with Tween-80): 128 % of control

O=[N+]([O-])c1ccc(S(=O)c2ccccc2)c2c1no[n+]2[O-] (centres undefined)
survivor count (dose: 90.0 mg/kg/injection, schedule: Q01DX009 (ip), vehicle: saline with Tween-80): 2 of 7

O=C1NC(c2cccs2)(c2cccs2)C(=O)N1Cl
T/C (dose: 100.0 mg/kg/injection, schedule: Q01DX009 (ip), vehicle: water): 134 % of control
T/C (dose: 200.0 mg/kg/injection, schedule: Q01DX009 (ip), vehicle: water): 125 % of control [5 of 6 alive]
survivor count [3]: 2 of 6

Cc1cnc(Cl)nc1Sc1nc(N)nc2nc[nH]c12
T/C (dose: 4.0 mg/kg/injection, schedule: Q01DX009 (ip), vehicle: saline with Tween-80): 138 % of control
T/C (dose: 9.0 mg/kg/injection, schedule: Q01DX009 (ip), vehicle: saline with Tween-80): 138 % of control
survivor count [1]: 6 of 6
survivor count [2]: 6 of 6

COc1ccc(C2=CCCCC2)cc1
survivor count (dose: 400.0 mg/kg/injection, schedule: Q01DX009 (ip), vehicle: saline with Tween-80): 6 of 6

c1cc2n(n1)CCN2
T/C [1]: 130 % of control
survivor count [3]: 3 of 6
T/C [2]: 140 % of control [5 of 6 alive]

C=CC(=O)NC12CC3CC(CC(C3)C1)C2
survivor count [2]: 6 of 6
